From patent US5128338A, “Imidazo [1,2-c] quinazoline compounds” (priority 1990, dated 1992)
At least one compound was matched to its structure with a doubt left.

Target: central receptors for benzodiazepines
Experiment: Displacement of [3H]-RO 151788, rat central nervous system microsomal fractions
Assay type: binding
Conditions: corrected for DMSO, read-out: K0.5, central receptors, [^3 H]--RO 151788

## CN1CCN(C(=O)Cn2c(=O)n3cc(-c4ccccc4)nc3c3ccccc32)CC1 [Example 12, 2-phenyl-6-N-methylpiperazinocarbonylmethyl-5-oxo-5,6-dihydroimidazo[1,2-c]quinazoline]
  IC50: > 100 µM
